Among all 360,000 compounds or so, about 10,000 (2.8%) were called active. Inconclusive results, whose numbers are uncertain, are shown with a selection of clear calls. Calls come from the whole dose curve; as a rule, active = well fitted inhibition curve with a large enough effect; inconclusive = small, poorly fitted or top-dose-only effect; inactive = flat fitted curve, though single readings scatter. Potencies beside an inconclusive call are fits to weak or partial responses and may not hold up.
Each molecule was assayed against Serine/threonine-protein kinase PLK1 (Homo sapiens) (UniProt P53350) (assay: qHTS for Inhibitors of PLK1-PDB (polo-like kinase 1 - polo-box domain): Primary Screen). Settings: Plk1 PBD binding of FITC phosphopeptide, fluorescence polarization.
% is set by controls: 0 for no effect and ±100 for the full control effect; potency is the fitted concentration of half-maximal effect.
Note: nearly all actives have a fitted effect of over 65% in size.
Throughout, for max response, negative = inhibition: series mostly up to about 57 µM.

Sequences of proteins named here, by UniProt entry; tags and fusion partners are left off.
UniProt P53350, whole entry, looked up: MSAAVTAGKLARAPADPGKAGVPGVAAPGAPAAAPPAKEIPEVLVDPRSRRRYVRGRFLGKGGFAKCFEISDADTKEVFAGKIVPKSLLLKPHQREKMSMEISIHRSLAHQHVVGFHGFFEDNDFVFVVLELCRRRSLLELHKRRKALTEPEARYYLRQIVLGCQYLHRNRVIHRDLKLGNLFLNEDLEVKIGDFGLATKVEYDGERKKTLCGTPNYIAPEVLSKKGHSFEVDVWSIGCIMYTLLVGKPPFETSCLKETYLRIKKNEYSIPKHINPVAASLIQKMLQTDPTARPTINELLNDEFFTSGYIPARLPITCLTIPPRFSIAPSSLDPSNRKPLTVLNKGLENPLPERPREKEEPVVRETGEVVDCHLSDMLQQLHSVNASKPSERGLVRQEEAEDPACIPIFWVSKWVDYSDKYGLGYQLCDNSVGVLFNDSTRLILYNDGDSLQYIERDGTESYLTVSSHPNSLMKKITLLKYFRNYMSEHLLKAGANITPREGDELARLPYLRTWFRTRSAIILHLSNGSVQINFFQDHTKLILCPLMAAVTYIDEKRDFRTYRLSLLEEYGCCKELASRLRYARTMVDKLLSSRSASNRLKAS

Row | SMILES | Potency | max response, negative = inhibition
1 | Cc1cc(C)c(SSc2nnnn2-c2ccccc2)c(C)c1 | active: 2.99 µM | 
2 | CC(C)(O)c1[nH]c2ccc(C#N)cc2c1C(C)(C)O | inconclusive: 26.7 µM [inhibitor, single point] | 
3 | COC(=O)c1nc(NC(=O)c2cc(OC)c(OC)c(OC)c2)n[nH]1 | inconclusive: 18.9 µM [inhibitor, partial curve] | 
4 | CCOC(=O)CCS(=O)(=O)c1nc(-c2ccccc2)cc(C(F)(F)F)n1 | inconclusive: 23.8 µM [inhibitor, partial curve] | 
5 | OCCNc1cnc2ccccc2n1 | active: 11.9 µM | 
6 | COCCNC(=O)C1(C)CCCN(Cc2cc3ccccc3o2)C1 (configuration not stated) |  | inactive: -8.55%
7 | O=C(NNS(=O)(=O)c1ccc2ccccc2c1)c1cc(-c2ccccn2)nc2ccccc12 | inconclusive: 37.7 µM [inhibitor, partial curve] | 
8 | Cn1ccnc1Sc1cc(Cl)ccc1[N+](=O)[O-] |  | inactive: -7.41%
9 | COc1ccc2o/c(=N\O)c(C(=O)Nc3ccc(C)cc3)cc2c1 |  | inactive: -17.2%
10 | Cc1nc(-c2ccc3c(c2)OCO3)cs1 | inconclusive: 26.7 µM [inhibitor, partial curve] | 
11 | O=C(NCCS(=O)(=O)c1ccc(Cl)cc1)c1ccc(F)cc1 | active: 21.2 µM | 
12 | Cc1ccc(S(=O)(=O)N2C(=O)C(c3ccccc3)SC2=Nc2ccccc2)cc1 (configuration not stated) | active: 9.47 µM | 
13 | Cc1ccc(Cl)cc1N1CCN(Cc2nc3ccsc3c(=O)[nH]2)CC1 | active: 29.9 µM | 
14 | COc1ccc(C(=O)CSc2ccc(-c3ccccc3)nn2)cc1 |  | inactive: -7.65%
15 | CCOc1ccc(CCN2C(=O)C(=O)N([C@@H](Cc3ccccc3)CN3CCC[C@H]3CN3C(=O)C(=O)NC[C@@H]3Cc3ccccc3)C[C@@H]2CC(C)C)cc1 |  | inactive: -8.37%
16 | COc1ccc(S(=O)(=O)Nc2cccc(-c3ccc(N4CCCCCC4)nn3)c2)c(OC)c1 | inconclusive: 26.7 µM [inhibitor, partial curve] | 
17 | O=C(c1cc(-c2cccnc2)nc2ccc(Br)cc12)N1CCN(c2ncccn2)CC1 |  | inactive: -8.87%
18 | N#Cc1c(SCC(=O)O)nc(N2CCCCC2)c2c1CCCC2 |  | inactive: -21.2%
19 | Cc1oc2c(CN3CCCC(C)C3)c(O)ccc2c(=O)c1-c1ccccc1 (configuration not stated) |  | inactive: 3.23%
20 | Cc1ccc(C)c(C(=O)c2ccccc2NC(=O)c2ccccn2)c1 |  | inactive: 4.34%
21 | CCOC(=O)N1CCN(C(=O)c2cc(COc3cccc(C(F)(F)F)c3)on2)CC1 |  | inactive: 0.628%
22 | COCCn1c(=O)[nH]c(=O)c2cc(C(=O)c3cc(Cl)ccc3O)cnc21 | inconclusive: 23.8 µM [inhibitor, single point] | 
23 | CCOc1ccc(C(=O)NC(C(=O)NCCc2ccc(S(N)(=O)=O)cc2)C(C)C)cc1 (configuration not stated) | inconclusive: 26.7 µM [inhibitor, partial curve] | 
24 | CO[C@H]1CN(C)C(=O)c2cc(NC(=O)C3CCCC3)ccc2OC[C@@H](C)NC[C@H]1C |  | inactive: -11.1%

Reformatted: entries from further up.
Row,SMILES,Potency,"max response, negative = inhibition"
1,Cc1cc(C)c(SSc2nnnn2-c2ccccc2)c(C)c1,active: 2.99 µM,
2,CC(C)(O)c1[nH]c2ccc(C#N)cc2c1C(C)(C)O,"inconclusive: 26.7 µM [inhibitor, single point]",
4,CCOC(=O)CCS(=O)(=O)c1nc(-c2ccccc2)cc(C(F)(F)F)n1,"inconclusive: 23.8 µM [inhibitor, partial curve]",
5,OCCNc1cnc2ccccc2n1,active: 11.9 µM,
6,COCCNC(=O)C1(C)CCCN(Cc2cc3ccccc3o2)C1 (configuration not stated),,inactive: -8.55%
7,O=C(NNS(=O)(=O)c1ccc2ccccc2c1)c1cc(-c2ccccn2)nc2ccccc12,"inconclusive: 37.7 µM [inhibitor, partial curve]",
8,Cn1ccnc1Sc1cc(Cl)ccc1[N+](=O)[O-],,inactive: -7.41%
9,COc1ccc2o/c(=N\O)c(C(=O)Nc3ccc(C)cc3)cc2c1,,inactive: -17.2%
10,Cc1nc(-c2ccc3c(c2)OCO3)cs1,"inconclusive: 26.7 µM [inhibitor, partial curve]",
11,O=C(NCCS(=O)(=O)c1ccc(Cl)cc1)c1ccc(F)cc1,active: 21.2 µM,
12,Cc1ccc(S(=O)(=O)N2C(=O)C(c3ccccc3)SC2=Nc2ccccc2)cc1 (configuration not stated),active: 9.47 µM,
14,COc1ccc(C(=O)CSc2ccc(-c3ccccc3)nn2)cc1,,inactive: -7.65%
15,CCOc1ccc(CCN2C(=O)C(=O)N([C@@H](Cc3ccccc3)CN3CCC[C@H]3CN3C(=O)C(=O)NC[C@@H]3Cc3ccccc3)C[C@@H]2CC(C)C)cc1,,inactive: -8.37%
16,COc1ccc(S(=O)(=O)Nc2cccc(-c3ccc(N4CCCCCC4)nn3)c2)c(OC)c1,"inconclusive: 26.7 µM [inhibitor, partial curve]",
17,O=C(c1cc(-c2cccnc2)nc2ccc(Br)cc12)N1CCN(c2ncccn2)CC1,,inactive: -8.87%
18,N#Cc1c(SCC(=O)O)nc(N2CCCCC2)c2c1CCCC2,,inactive: -21.2%
19,Cc1oc2c(CN3CCCC(C)C3)c(O)ccc2c(=O)c1-c1ccccc1 (configuration not stated),,inactive: 3.23%
20,Cc1ccc(C)c(C(=O)c2ccccc2NC(=O)c2ccccn2)c1,,inactive: 4.34%
21,CCOC(=O)N1CCN(C(=O)c2cc(COc3cccc(C(F)(F)F)c3)on2)CC1,,inactive: 0.628%
22,COCCn1c(=O)[nH]c(=O)c2cc(C(=O)c3cc(Cl)ccc3O)cnc21,"inconclusive: 23.8 µM [inhibitor, single point]",
23,CCOc1ccc(C(=O)NC(C(=O)NCCc2ccc(S(N)(=O)=O)cc2)C(C)C)cc1 (configuration not stated),"inconclusive: 26.7 µM [inhibitor, partial curve]",
24,CO[C@H]1CN(C)C(=O)c2cc(NC(=O)C3CCCC3)ccc2OC[C@@H](C)NC[C@H]1C,,inactive: -11.1%

Taken from the results shown, two compounds:
Row | SMILES | Potency | max response, negative = inhibition
17 | O=C(c1cc(-c2cccnc2)nc2ccc(Br)cc12)N1CCN(c2ncccn2)CC1 |  | inactive: -8.87%
18 | N#Cc1c(SCC(=O)O)nc(N2CCCCC2)c2c1CCCC2 |  | inactive: -21.2%

Additional results follow.

Row | SMILES | Potency | max response, negative = inhibition
25 | Cn1cccc1/C=N/NC(=O)c1cccc(OC(F)(F)C(F)F)c1 | inconclusive: 26.7 µM [inhibitor, partial curve] | 
26 | NNS(=O)(=O)c1ccc2c(c1)Cc1cc(S(=O)(=O)NN)ccc1-2 |  | inactive: -23.4%
27 | Cc1ccc(NC(=O)CNC(=O)OCc2ccccc2)cc1C |  | inconclusive: -32.2% [inhibitor]
28 | Cc1cccc(C)c1OCC(=O)NCc1nnc(SCC(=O)NC2CCCCC2C)n1C (configuration not stated) |  | inactive: 3.07%
29 | Oc1cccc(C(Nc2nccs2)c2ccc3cccnc3c2O)c1 (configuration not stated) | inconclusive: 29.9 µM [inhibitor, partial curve] | 
30 | O=C1C(Cl)=C(N2CCOCC2)C(=O)N1c1cccc(C(F)(F)F)c1 | inconclusive: 21.2 µM [inhibitor, single point] | 
31 | Cc1cc(Cl)n2c(nc3ccccc32)c1C#N | inconclusive: 18.9 µM [inhibitor, partial curve] | 
32 | CN(C)C(=S)N=c1ssc(=S)n1Cc1cccnc1 | active: 26.7 µM | 
33 | Fc1ccccc1COc1cccc(/C=N/n2cnnc2)c1 |  | inactive: -6.75%
34 | Cc1sc(NC(=S)NC(=O)c2ccco2)c(C(N)=O)c1C | inconclusive: 21.2 µM [inhibitor, partial curve] | 
35 | COc1cc(OC)c2c(-c3cccc(-c4ccc(CO)cc4)c3)cc(=O)oc2c1 | inconclusive: 29.9 µM [inhibitor, single point] | 
36 | CC(=O)NC(NC(=S)Nc1c(C)n(C)n(-c2ccccc2)c1=O)C(Cl)(Cl)Cl (configuration not stated) | inconclusive: 26.7 µM [inhibitor, partial curve] | 
37 | Cc1ccc(C(=O)N2CC(=O)Nc3ccc(F)cc3C2c2ccccc2)cc1 (configuration not stated) |  | inactive: -1.52%
38 | CCNC(=O)C1(C)CCN(C(=O)C(c2ccccc2)c2ccccc2)C1 (configuration not stated) |  | inactive: 2.71%
39 | CC(c1n[nH]c(=S)n1-c1ccc(Cl)cc1)N(C)C (configuration not stated) |  | inactive: -10.6%
40 | O=C(CN1CCN(C(=O)C2CCN(C(=O)/C=C/c3ccccc3)CC2)CC1)Nc1ccccc1Cl |  | inactive: -14.6%
41 | Cc1ccc(NC(=S)Nc2ccc(S(=O)(=O)N3CCOCC3)cc2)cc1S(=O)(=O)N1CCOCC1 | inconclusive: 21.2 µM [inhibitor, partial curve, poor fit] | 
42 | O=C(NC(=S)N(Cc1ccccc1)c1ccccn1)C1CC1 | active: 21.2 µM | 
43 | CN(Cc1nc(Cc2ccccc2F)no1)Cc1cccc2ncccc12 |  | inactive: 4.09%
44 | O=C(O)CSc1c(-c2cccs2)[nH]c2ccccc12 | active: 26.7 µM | 
45 | O=C(CNS(=O)(=O)c1ccc(Cl)cc1)NNC(=O)c1cccnc1 | active: 9.47 µM | 
46 | COc1cc(CCC(=O)Nc2nnc(-c3cccnc3)s2)cc(OC)c1OC | inconclusive: 16.8 µM [inhibitor, partial curve] | 
47 | CC1CCN(c2ncnc3c2cnn3Cc2ccc(Cl)cc2)CC1 | inconclusive: 29.9 µM [inhibitor, single point] | 
48 | Cc1cc(N2C(=O)C(O)=C(C(=O)c3cc4ccccc4o3)C2c2ccc(OC(C)C)cc2)no1 (configuration not stated) | inconclusive: 21.2 µM [inhibitor, partial curve] | 

Row | SMILES | Potency | max response, negative = inhibition
49 | COc1ccccc1CCNC(=O)CSCC(=O)Nc1ccccc1F | inconclusive: 13.4 µM [inhibitor, partial curve] | 
50 | N#Cc1cccc(NC(=O)Cn2cnc(S(=O)(=O)N3CCOCC3)c2)c1 | active: 9.47 µM | 
51 | CC1(NS(=O)(=O)c2ccc(Cl)s2)CCS(=O)(=O)C1 (configuration not stated) | inconclusive: 33.6 µM [inhibitor, partial curve, poor fit] | 
52 | Nc1ccccc1NC1CCCCC1 |  | inactive: -1.06%
53 | CCN(Cc1ccccc1)C(=O)CN1C(=O)COc2ccc(S(=O)(=O)N3CCCCCC3)cc21 |  | inactive: -5.6%
54 | Cc1ccccc1-n1c(SCC(=O)c2c(N)n(C)c(=O)n(C)c2=O)nc2sc3c(c2c1=O)CCCC3 | inconclusive: 21.2 µM [inhibitor, single point] | 
55 | O=C(O)CSc1nnc(COc2cccc3ccccc23)o1 | inconclusive: 29.9 µM [inhibitor, single point] | 
56 | CN(C(=O)CSc1nnc(NC2CCCCC2)s1)C1CCS(=O)(=O)C1 (configuration not stated) | inconclusive: 26.7 µM [inhibitor, single point] | 
57 | CC1CN(C(=S)c2cccc([N+](=O)[O-])c2)CC(C)O1 (configuration not stated) | inconclusive: 37.7 µM [inhibitor, single point] | 
58 | CC(=O)Oc1ccc(C(=O)OCC(=O)c2c(N)n(C)c(=O)n(C)c2=O)cc1OC(C)=O | inconclusive: 26.7 µM [inhibitor, single point] | 
59 | Cc1ccc(-c2[nH]nc3c2C(c2ccoc2)C(C#N)=C(N)O3)cc1C (configuration not stated) | inconclusive: 26.7 µM [inhibitor, partial curve] | 
60 | CCOC(=O)C(=Cc1ccc(-n2ccnc2)cc1)C(=O)OCC | inconclusive: 21.2 µM [inhibitor, partial curve] | 
61 | Cc1nn(-c2ccccc2)c2c1C(c1ccco1)C(C#N)=C(N)O2 (configuration not stated) | active: 26.7 µM | 
62 | CCOC(=O)N1CCN(C(=O)CN2C(=O)COc3ccc(C(C)(C)C)cc32)CC1 | inconclusive: 26.7 µM [inhibitor, single point] | 
63 | O=C(COC(=O)CC1SC(N2CCCC2)=NC1=O)Nc1c(F)c(F)c(F)c(F)c1F (configuration not stated) |  | inactive: -13.1%
64 | N#C/C(=C(/O)CSc1n[nH]c(N)n1)c1nc2ccccc2[nH]1 | inconclusive: 21.2 µM [inhibitor, partial curve] | 
65 | O=C(Nc1cccc(S(=O)(=O)NC2=NCCC2)c1)c1cc(-c2ccco2)nc2ccccc12 | inconclusive: 11.9 µM [inhibitor, partial curve] | 
66 | CCN(C(=S)NC(=O)c1ccco1)c1cccc2ccccc12 | inconclusive: 21.2 µM [inhibitor, single point] | 
67 | COc1cccc(C=Nc2ccc3c(c2)CCC3)c1O |  | inconclusive: -33.1% [inhibitor]
68 | Cc1c(/C=N/NC(=O)c2cccnc2)cc(C#N)n1C | inconclusive: 26.7 µM [inhibitor, single point] | 
69 | Cc1ccc(S(=O)(=O)N(C)C[C@@H]2OCc3cn(nn3)CCCC(=O)N([C@H](C)CO)C[C@H]2C)cc1 | inconclusive: 33.6 µM [inhibitor, partial curve] | 
70 | O=C(O)Cc1sc(N/N=C\c2ccncc2)nc1-c1ccccc1 |  | inactive: -30%
71 | O=C(CC1S/C(=N/N=C/c2cccnc2)NC1=O)Nc1ccccc1 (configuration not stated) |  | inactive: -1.5%
72 | Cc1ccccc1OC1=NS(=O)(=O)c2ccccc21 | active: 29.9 µM | 
